{"source": "PubChem BioAssay AID1259308 | NCATS – 2017", "purpose": "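Knock-downs that increase output of a recombinant reporter protein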 (primary screen)", "system": "human HEK293 embryonic kidney cells stably expressing firefly luciferase (HEK-CMV-Luc2-Hygro)", "knock-down reagent": "single siRNA against human genes, 0.8 pmol siRNA per well", "duration": "72 h", "detection": "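Luciferase light (ONE-Glo) measured on one replicate plate set and viability (CellTiter-Glo) on the other, scaled to a negative control siRNA, with robust z-scores and luciferase per cell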", "direction": "total luciferase, z-score: higher = more reporter protein produced", "call rule": "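Active when the median/MAD z-score for overall luciferase is greater than 3; a gene was taken forward for validation with new siRNAs if at least two of its three siRNAs passed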", "meaning of the calls": "active = raised luciferase; inactive = no rise", "note": "In all, the deposit lists about 59,000 reagents; this is a part drawn at random. In the full data, about 1,510 (2.6%) are marked active. 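Calls use total luciferase alone and ignore viability, so some active siRNAs may act by altering cell number.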 Reagents against one gene are numbered here. Not all columns of the deposit are shown. No sequences are given here."}
{"gene knocked down":"ASH1L (ASH1 like histone lysine methyltransferase)","reagent":1,"total luciferase, z-score":-0.265,"Call":"inactive"}
{"gene knocked down":"ASH1L (ASH1 like histone lysine methyltransferase)","reagent":2,"total luciferase, z-score":0.299,"Call":"inactive"}
{"gene knocked down":"ASH1L (ASH1 like histone lysine methyltransferase)","reagent":3,"total luciferase, z-score":-1.6,"Call":"inactive"}
{"gene knocked down":"CPM (carboxypeptidase M)","reagent":1,"total luciferase, z-score":-0.0104,"Call":"inactive"}
{"gene knocked down":"CPM (carboxypeptidase M)","reagent":2,"total luciferase, z-score":0.286,"Call":"inactive"}
{"gene knocked down":"CPM (carboxypeptidase M)","reagent":3,"total luciferase, z-score":-0.499,"Call":"inactive"}
{"gene knocked down":"TMEM14B (transmembrane protein 14B)","reagent":1,"total luciferase, z-score":0.541,"Call":"inactive"}
{"gene knocked down":"TMEM14B (transmembrane protein 14B)","reagent":2,"total luciferase, z-score":-2.03,"Call":"inactive"}
{"gene knocked down":"TMEM14B (transmembrane protein 14B)","reagent":3,"total luciferase, z-score":-2.93,"Call":"inactive"}
{"gene knocked down":"LMTK3 (lemur tail kinase 3)","reagent":1,"total luciferase, z-score":1.93,"Call":"inactive"}
{"gene knocked down":"LMTK3 (lemur tail kinase 3)","reagent":2,"total luciferase, z-score":-0.315,"Call":"inactive"}
{"gene knocked down":"LMTK3 (lemur tail kinase 3)","reagent":3,"total luciferase, z-score":-0.739,"Call":"inactive"}
{"gene knocked down":"PFKFB4 (6-phosphofructo-2-kinase/fructose-2,6-biphosphatase 4)","reagent":1,"total luciferase, z-score":-1.44,"Call":"inactive"}
{"gene knocked down":"PFKFB4 (6-phosphofructo-2-kinase/fructose-2,6-biphosphatase 4)","reagent":2,"total luciferase, z-score":-0.104,"Call":"inactive"}
{"gene knocked down":"PFKFB4 (6-phosphofructo-2-kinase/fructose-2,6-biphosphatase 4)","reagent":3,"total luciferase, z-score":1.16,"Call":"inactive"}
{"gene knocked down":"INTS6L (integrator complex subunit 6 like)","reagent":1,"total luciferase, z-score":1.45,"Call":"inactive"}
{"gene knocked down":"INTS6L (integrator complex subunit 6 like)","reagent":2,"total luciferase, z-score":-0.0645,"Call":"inactive"}
{"gene knocked down":"INTS6L (integrator complex subunit 6 like)","reagent":3,"total luciferase, z-score":0.0459,"Call":"inactive"}
{"gene knocked down":"DUX5 (double homeobox 5)","reagent":1,"total luciferase, z-score":0.337,"Call":"inactive"}
{"gene knocked down":"DUX5 (double homeobox 5)","reagent":2,"total luciferase, z-score":0.196,"Call":"inactive"}
{"gene knocked down":"DUX5 (double homeobox 5)","reagent":3,"total luciferase, z-score":0.71,"Call":"inactive"}
{"gene knocked down":"PKD1L1","reagent":1,"total luciferase, z-score":0.271,"Call":"inactive"}
{"gene knocked down":"PKD1L1","reagent":2,"total luciferase, z-score":1.81,"Call":"inactive"}
{"gene knocked down":"PKD1L1","reagent":3,"total luciferase, z-score":1.66,"Call":"inactive"}
{"gene knocked down":"CRELD1 (CRELD disulfide isomerase 1)","reagent":1,"total luciferase, z-score":0.927,"Call":"inactive"}
{"gene knocked down":"CRELD1 (CRELD disulfide isomerase 1)","reagent":2,"total luciferase, z-score":0.375,"Call":"inactive"}
{"gene knocked down":"CRELD1 (CRELD disulfide isomerase 1)","reagent":3,"total luciferase, z-score":0.586,"Call":"inactive"}
{"gene knocked down":"RPSAP20 (ribosomal protein SA pseudogene 20)","reagent":1,"total luciferase, z-score":-2.21,"Call":"inactive"}
{"gene knocked down":"RPSAP20 (ribosomal protein SA pseudogene 20)","reagent":2,"total luciferase, z-score":-3.13,"Call":"inactive"}
{"gene knocked down":"RPSAP20 (ribosomal protein SA pseudogene 20)","reagent":3,"total luciferase, z-score":0.947,"Call":"inactive"}
{"gene knocked down":"EOLA2 (endothelium and lymphocyte associated ASCH domain 2)","reagent":1,"total luciferase, z-score":0.692,"Call":"inactive"}
{"gene knocked down":"EOLA2 (endothelium and lymphocyte associated ASCH domain 2)","reagent":2,"total luciferase, z-score":-0.878,"Call":"inactive"}
{"gene knocked down":"EOLA2 (endothelium and lymphocyte associated ASCH domain 2)","reagent":3,"total luciferase, z-score":-1.82,"Call":"inactive"}
